Reference: publication doi:10.1101/2022.01.05.475133 (bioRxiv, 2022)

Sequences of proteins named here, by UniProt entry; tags and fusion partners are left off. A change or cut given only in a name is not applied to a line headed by its entry.
UniProt O75762: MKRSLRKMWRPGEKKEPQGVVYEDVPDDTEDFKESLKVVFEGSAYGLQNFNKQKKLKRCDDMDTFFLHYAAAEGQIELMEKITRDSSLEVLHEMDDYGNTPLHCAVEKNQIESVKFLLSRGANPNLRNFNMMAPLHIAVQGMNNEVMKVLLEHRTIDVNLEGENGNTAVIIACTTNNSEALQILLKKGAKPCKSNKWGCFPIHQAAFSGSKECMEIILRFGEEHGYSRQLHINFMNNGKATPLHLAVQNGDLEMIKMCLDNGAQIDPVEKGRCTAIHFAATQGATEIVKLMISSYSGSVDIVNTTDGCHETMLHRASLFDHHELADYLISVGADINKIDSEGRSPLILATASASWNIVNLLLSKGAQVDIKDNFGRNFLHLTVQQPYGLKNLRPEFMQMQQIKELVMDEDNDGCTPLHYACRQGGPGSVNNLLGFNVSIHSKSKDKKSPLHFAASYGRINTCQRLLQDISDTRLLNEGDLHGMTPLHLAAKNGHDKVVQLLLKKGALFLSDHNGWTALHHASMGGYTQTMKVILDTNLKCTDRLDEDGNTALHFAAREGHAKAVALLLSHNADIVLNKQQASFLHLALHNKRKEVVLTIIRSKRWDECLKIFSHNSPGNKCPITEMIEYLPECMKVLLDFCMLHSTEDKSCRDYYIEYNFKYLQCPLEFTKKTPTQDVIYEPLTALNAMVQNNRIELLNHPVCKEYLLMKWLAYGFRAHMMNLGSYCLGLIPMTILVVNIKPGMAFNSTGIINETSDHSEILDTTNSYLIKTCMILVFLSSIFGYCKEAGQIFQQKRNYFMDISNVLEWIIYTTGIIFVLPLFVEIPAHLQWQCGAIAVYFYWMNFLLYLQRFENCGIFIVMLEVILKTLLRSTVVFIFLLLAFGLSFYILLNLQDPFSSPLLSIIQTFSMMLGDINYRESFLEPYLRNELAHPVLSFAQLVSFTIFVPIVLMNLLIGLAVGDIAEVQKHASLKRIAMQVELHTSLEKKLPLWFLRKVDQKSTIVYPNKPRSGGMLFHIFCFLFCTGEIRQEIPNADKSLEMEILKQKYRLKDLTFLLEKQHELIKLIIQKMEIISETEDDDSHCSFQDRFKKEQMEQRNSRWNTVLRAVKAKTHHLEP

Molecular target: BioID2-fused WT human TRPA1 (human) (UniProt O75762)
Assay: proximity labelling

Substance	binding
3xFLAG-tagged R919* human TRPA1 (from UniProt O75762 1-918) (domain or fragment)	binds
3xFLAG-tagged WT human TRPA1 (from UniProt O75762 1-1119)	binds

Results are given in words; binding and its absence hold for the method and conditions named. Binding seen in cells or lysates may run through a third protein. Here binding means that the protein was enriched with, or labelled near, the bait; the list need not be complete.
